Source: paper PMC7364817

T1: FLAG-tagged SMCR8 (Smith-Magenis Syndrome Chromosome Region, Candidate 8) (UniProt Q8TEV9)
T1 sequence: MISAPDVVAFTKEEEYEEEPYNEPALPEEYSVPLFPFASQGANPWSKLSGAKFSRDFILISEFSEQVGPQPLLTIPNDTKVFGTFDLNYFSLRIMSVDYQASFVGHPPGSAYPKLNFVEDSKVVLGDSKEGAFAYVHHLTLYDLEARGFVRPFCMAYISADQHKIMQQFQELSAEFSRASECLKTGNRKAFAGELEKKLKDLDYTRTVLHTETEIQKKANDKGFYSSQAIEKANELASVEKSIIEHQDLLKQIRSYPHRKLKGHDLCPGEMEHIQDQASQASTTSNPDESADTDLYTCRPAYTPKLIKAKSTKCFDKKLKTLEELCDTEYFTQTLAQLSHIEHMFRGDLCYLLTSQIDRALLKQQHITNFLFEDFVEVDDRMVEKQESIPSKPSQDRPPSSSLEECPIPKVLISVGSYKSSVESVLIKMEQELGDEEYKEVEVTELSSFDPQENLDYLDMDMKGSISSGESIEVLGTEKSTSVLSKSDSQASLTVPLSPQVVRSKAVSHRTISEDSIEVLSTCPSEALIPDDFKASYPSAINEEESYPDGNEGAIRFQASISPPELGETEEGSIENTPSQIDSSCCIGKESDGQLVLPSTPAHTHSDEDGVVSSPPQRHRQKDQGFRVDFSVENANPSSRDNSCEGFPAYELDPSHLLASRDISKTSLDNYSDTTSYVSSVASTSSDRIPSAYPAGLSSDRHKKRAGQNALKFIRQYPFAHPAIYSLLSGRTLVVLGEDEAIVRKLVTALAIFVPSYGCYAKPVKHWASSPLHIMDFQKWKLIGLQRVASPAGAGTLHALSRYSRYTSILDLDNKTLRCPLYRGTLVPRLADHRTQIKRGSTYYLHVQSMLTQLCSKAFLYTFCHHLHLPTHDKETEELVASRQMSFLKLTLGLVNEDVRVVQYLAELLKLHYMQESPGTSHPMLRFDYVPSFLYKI

B1: ADAR (protein, UniProt P55265 1-1226)
chain: MNPRQGYSLSGYYTHPFQGYEHRQLRYQQPGPGSSPSSFLLKQIEFLKGQLPEAPVIGKQTPSLPPSLPGLRPRFPVLLASSTRGRQVDIRGVPRGVHLRSQGLQRGFQHPSPRGRSLPQRGVDCLSSHFQELSIYQDQEQRILKFLEELGEGKATTAHDLSGKLGTPKKEINRVLYSLAKKGKLQKEAGTPPLWKIAVSTQAWNQHSGVVRPDGHSQGAPNSDPSLEPEDRNSTSVSEDLLEPFIAVSAQAWNQHSGVVRPDSHSQGSPNSDPGLEPEDSNSTSALEDPLEFLDMAEIKEKICDYLFNVSDSSALNLAKNIGLTKARDINAVLIDMERQGDVYRQGTTPPIWHLTDKKRERMQIKRNTNSVPETAPAAIPETKRNAEFLTCNIPTSNASNNMVTTEKVENGQEPVIKLENRQEARPEPARLKPPVHYNGPSKAGYVDFENGQWATDDIPDDLNSIRAAPGEFRAIMEMPSFYSHGLPRCSPYKKLTECQLKNPISGLLEYAQFASQTCEFNMIEQSGPPHEPRFKFQVVINGREFPPAEAGSKKVAKQDAAMKAMTILLEEAKAKDSGKSEESSHYSTEKESEKTAESQTPTPSATSFFSGKSPVTTLLECMHKLGNSCEFRLLSKEGPAHEPKFQYCVAVGAQTFPSVSAPSKKVAKQMAAEEAMKALHGEATNSMASDNQPEGMISESLDNLESMMPNKVRKIGELVRYLNTNPVGGLLEYARSHGFAAEFKLVDQSGPPHEPKFVYQAKVGGRWFPAVCAHSKKQGKQEAADAALRVLIGENEKAERMGFTEVTPVTGASLRRTMLLLSRSPEAQPKTLPLTGSTFHDQIAMLSHRCFNTLTNSFQPSLLGRKILAAIIMKKDSEDMGVVVSLGTGNRCVKGDSLSLKGETVNDCHAEIISRRGFIRFLYSELMKYNSQTAKDSIFEPAKGGEKLQIKKTVSFHLYISTAPCGDGALFDKSCSDRAMESTESRHYPVFENPKQGKLRTKVENGEGTIPVESSDIVPTWDGIRLGERLRTMSCSDKILRWNVLGLQGALLTHFLQPIYLKSVTLGYLFSQGHLTRAICCRVTRDGSAFEDGLRHPFIVNHPKVGRVSIYDSKRQSGKTKETSVNWCLADGYDLEILDGTRGTVDGPRNELSRVSKKNIFLLFKKLCSFRYRRDLLRLSYGEAKKAARDYETAKNYFKKGLKDMGYGNWISKPQEEKNFYLCPV
B2: MATR3 (protein, UniProt P43243 1-847)
chain: MSKSFQQSSLSRDSQGHGRDLSAAGIGLLAAATQSLSMPASLGRMNQGTARLASLMNLGMSSSLNQQGAHSALSSASTSSHNLQSIFNIGSRGPLPLSSQHRGDADQASNILASFGLSARDLDELSRYPEDKITPENLPQILLQLKRRRTEEGPTLSYGRDGRSATREPPYRVPRDDWEEKRHFRRDSFDDRGPSLNPVLDYDHGSRSQESGYYDRMDYEDDRLRDGERCRDDSFFGETSHNYHKFDSEYERMGRGPGPLQERSLFEKKRGAPPSSNIEDFHGLLPKGYPHLCSICDLPVHSNKEWSQHINGASHSRRCQLLLEIYPEWNPDNDTGHTMGDPFMLQQSTNPAPGILGPPPPSFHLGGPAVGPRGNLGAGNGNLQGPRHMQKGRVETSRVVHIMDFQRGKNLRYQLLQLVEPFGVISNHLILNKINEAFIEMATTEDAQAAVDYYTTTPALVFGKPVRVHLSQKYKRIKKPEGKPDQKFDQKQELGRVIHLSNLPHSGYSDSAVLKLAEPYGKIKNYILMRMKSQAFIEMETREDAMAMVDHCLKKALWFQGRCVKVDLSEKYKKLVLRIPNRGIDLLKKDKSRKRSYSPDGKESPSDKKSKTDGSQKTESSTEGKEQEEKSGEDGEKDTKDDQTEQEPNMLLESEDELLVDEEEAAALLESGSSVGDETDLANLGDVASDGKKEPSDKAVKKDGSASAAAKKKLKKVDKIEELDQENEAALENGIKNEENTEPGAESSENADDPNKDTSENADGQSDENKDDYTIPDEYRIGPYQPNVPVGIDYVIPKTGFYCKLCSLFYTNEEVAKNTHCSSLPHYQKLKKFLNKLAEERRQKKET
B3: AIMP1 (protein, UniProt Q12904 1-312)
chain: MANNDAVLKRLEQKGAEADQIIEYLKQQVSLLKEKAILQATLREEKKLRVENAKLKKEIEELKQELIQAEIQNGVKQIPFPSGTPLHANSMVSENVIQSTAVTTVSSGTKEQIKGGTGDEKKAKEKIEKKGEKKEKKQQSIAGSADSKPIDVSRLDLRIGCIITARKHPDADSLYVEEVDVGEIAPRTVVSGLVNHVPLEQMQNRMVILLCNLKPAKMRGVLSQAMVMCASSPEKIEILAPPNGSVPGDRITFDAFPGEPDKELNPKKKIWEQIQPDLHTNDECVATYKGVPFEVKGKGVCRAQTMSNSGIK
B4: ADNP (protein, UniProt Q9H2P0 1-1102)
chain: MFQLPVNNLGSLRKARKTVKKILSDIGLEYCKEHIEDFKQFEPNDFYLKNTTWEDVGLWDPSLTKNQDYRTKPFCCSACPFSSKFFSAYKSHFRNVHSEDFENRILLNCPYCTFNADKKTLETHIKIFHAPNASAPSSSLSTFKDKNKNDGLKPKQADSVEQAVYYCKKCTYRDPLYEIVRKHIYREHFQHVAAPYIAKAGEKSLNGAVPLGSNAREESSIHCKRCLFMPKSYEALVQHVIEDHERIGYQVTAMIGHTNVVVPRSKPLMLIAPKPQDKKSMGLPPRIGSLASGNVRSLPSQQMVNRLSIPKPNLNSTGVNMMSSVHLQQNNYGVKSVGQGYSVGQSMRLGLGGNAPVSIPQQSQSVKQLLPSGNGRSYGLGSEQRSQAPARYSLQSANASSLSSGQLKSPSLSQSQASRVLGQSSSKPAAAATGPPPGNTSSTQKWKICTICNELFPENVYSVHFEKEHKAEKVPAVANYIMKIHNFTSKCLYCNRYLPTDTLLNHMLIHGLSCPYCRSTFNDVEKMAAHMRMVHIDEEMGPKTDSTLSFDLTLQQGSHTNIHLLVTTYNLRDAPAESVAYHAQNNPPVPPKPQPKVQEKADIPVKSSPQAAVPYKKDVGKTLCPLCFSILKGPISDALAHHLRERHQVIQTVHPVEKKLTYKCIHCLGVYTSNMTASTITLHLVHCRGVGKTQNGQDKTNAPSRLNQSPSLAPVKRTYEQMEFPLLKKRKLDDDSDSPSFFEEKPEEPVVLALDPKGHEDDSYEARKSFLTKYFNKQPYPTRREIEKLAASLWLWKSDIASHFSNKRKKCVRDCEKYKPGVLLGFNMKELNKVKHEMDFDAEWLFENHDEKDSRVNASKTADKKLNLGKEDDSSSDSFENLEEESNESGSPFDPVFEVEPKISNDNPEEHVLKVIPEDASESEEKLDQKEDGSKYETIHLTEEPTKLMHNASDSEVDQDDVVEWKDGASPSESGPGSQQVSDFEDNTCEMKPGTWSDESSQSEDARSSKPAAKKKATMQGDREQLKWKNSSYGKVEGFWSKDQSQWKNASENDERLSNPQIEWQNSTIDSEDGEQFDNMTDGVAEPMHGSLAGVKLSSQQA
B5: SPG20 (protein, UniProt Q8N0X7 1-666)
chain: MEQEPQNGEPAEIKIIREAYKKAFLFVNKGLNTDELGQKEEAKNYYKQGIGHLLRGISISSKESEHTGPGWESARQMQQKMKETLQNVRTRLEILEKGLATSLQNDLQEVPKLYPEFPPKDMCEKLPEPQSFSSAPQHAEVNGNTSTPSAGAVAAPASLSLPSQSCPAEAPPAYTPQAAEGHYTVSYGTDSGEFSSVGEEFYRNHSQPPPLETLGLDADELILIPNGVQIFFVNPAGEVSAPSYPGYLRIVRFLDNSLDTVLNRPPGFLQVCDWLYPLVPDRSPVLKCTAGAYMFPDTMLQAAGCFVGVVLSSELPEDDRELFEDLLRQMSDLRLQANWNRAEEENEFQIPGRTRPSSDQLKEASGTDVKQLDQGNKDVRHKGKRGKRAKDTSSEEVNLSHIVPCEPVPEEKPKELPEWSEKVAHNILSGASWVSWGLVKGAEITGKAIQKGASKLRERIQPEEKPVEVSPAVTKGLYIAKQATGGAAKVSQFLVDGVCTVANCVGKELAPHVKKHGSKLVPESLKKDKDGKSPLDGAMVVAASSVQGFSTVWQGLECAAKCIVNNVSAETVQTVRYKYGYNAGEATHHAVDSAVNVGVTAYNINNIGIKAMVKKTATQTGHTLLEDYQIVDNSQRENQEGAANVNVRGEKDEQTKEVKEAKKKDK
B6: AIMP2 (protein, UniProt Q13155 1-320)
chain: MPMYQVKPYHGGGAPLRVELPTCMYRLPNVHGRSYGPAPGAGHVQEESNLSLQALESRQDDILKRLYELKAAVDGLSKMIQTPDADLDVTNIIQADEPTTLTTNALDLNSVLGKDYGALKDIVINANPASPPLSLLVLHRLLCEHFRVLSTVHTHSSVKSVPENLLKCFGEQNKKQPRQDYQLGFTLIWKNVPKTQMKFSIQTMCPIEGEGNIARFLFSLFGQKHNAVNATLIDSWVDIAIFQLKEGSSKEKAAVFRSMNSALGKSPWLAGNELTVADVVLWSVLQQIGGCSVTVPANVQRWMRSCENLAPFNTALKLLK

target: T1, FLAG-tagged SMCR8 (Smith-Magenis Syndrome Chromosome Region, Candidate 8); assay: affinity purification with mass spectrometry; FL-SMCR8, C9orf72-FL or empty vector transfected in HEK 293T; α-FLAG agarose IP from whole cell lysates with or without RNase; LC-MS/MS; hits with three or more spectra and not detected in vector only control

| binding | Binder |
| --- | --- |
| binds | B1 |
| binds | B2 |
| binds | B3 |
| binds | B4 |
| binds | B5 |
| binds | B6 |

These are yes or no findings as the source states them, for the method shown. Binding seen in cells or lysates may run through a third protein. A yes stands for co-enrichment or nearness to the bait. Other partners may have been found. Tags and fused reporters may be left off the sequences shown.
